{"source": "patent US20260077011A1", "about": "“INTEGRIN INHIBITORS AS THERAPY FOR OBESITY DISORDERS” (priority 2022, published 2026)", "key": {"RAW264.7 cells [1]": {"system": "RAW264.7 cells", "test": "Osteoclastogenesis / giant cell formation with Rank-L, TRAP staining, RAW264.7 cells", "format": "cell-based, mouse"}, "RAW264.7 cells [2]": {"system": "RAW264.7 cells", "test": "Migration assay, RAW264.7 cells", "format": "cell-based, mouse", "settings": "three hours"}, "[3]": {"system": "bone marrow-derived macrophages (BMDM)", "test": "Adhesion assay, BMDM on decellularized extracellular matrix", "format": "cell-based, mouse"}, "RAW264.7 cells [4]": {"system": "RAW264.7 cells", "test": "Adhesion assay, RAW264.7 cells", "format": "cell-based, mouse", "settings": "30 μM, half an hour before seeding"}, "[5]": {"system": "epididymal adipose tissue and liver gene expression", "test": "In vivo HFD-fed mice: qPCR of epididymal adipose tissue and liver", "design": "species or system mouse", "settings": "peptide versus vehicle"}, "ERK phosphorylation [6]": {"system": "ERK phosphorylation", "test": "In vivo HFD-fed mice: western blot of ERK phosphorylation in visceral adipose tissue", "design": "species or system mouse", "settings": "peptide versus vehicle"}, "[7]": {"system": "epididymal adipose tissues from HFD-fed mice", "test": "Ex vivo epididymal adipose tissue explants, qPCR of pro-inflammatory genes", "format": "cell-based, mouse", "settings": "LPS (100 ng/ml) and 30 μM peptide"}, "ERK phosphorylation [8]": {"system": "ERK phosphorylation", "test": "Western blot of ERK and phosphorylated ERK, RAW264.7 cells", "format": "cell-based, mouse", "settings": "30 minutes"}, "[9]": {"test": "In vivo HFD-fed obese mice: body and organ weights, glucose tolerance", "design": "species or system mouse"}, "[10]": {"system": "adipose tissue immune cells and macrophages", "test": "In vivo HFD-fed mice: immune cells in adipose tissue", "design": "species or system mouse", "settings": "peptide versus vehicle"}, "RAW264.7 cells [11]": {"system": "RAW264.7 cells", "test": "Griess assay of nitrite in medium, LPS-activated RAW264.7 cells", "format": "cell-based, mouse", "settings": "LPS 100 nM and 30 μM peptide, 8 hours"}, "ERK phosphorylation [12]": {"system": "ERK phosphorylation", "test": "Western blot of ERK and pERK, BMDM", "format": "cell-based, mouse", "settings": "LPS-treated, 30 minutes"}, "[13]": {"system": "bone marrow-derived macrophages (BMDM)", "test": "qPCR of pro-inflammatory genes, LPS-treated BMDM", "format": "cell-based, mouse", "settings": "LPS (100 nM) with peptide (30 μM), eight hours"}, "[14]": {"system": "bone marrow-derived macrophages (BMDM)", "test": "Griess assay of nitrite in medium, LPS-treated BMDM", "format": "cell-based, mouse", "settings": "LPS with peptide, eight hours"}, "RAW264.7 cells [15]": {"system": "RAW264.7 cells", "test": "qPCR of pro-inflammatory genes, LPS-activated RAW264.7 cells", "format": "cell-based, mouse", "settings": "LPS 100 nM and 30 μM peptide, 8 hours"}, "[16]": {"system": "epididymal adipose tissues from HFD-fed mice", "test": "Ex vivo adipose tissue intracellular cytokine assay, flow cytometry", "format": "cell-based, mouse", "settings": "LPS+Peptide versus LPS, 16 hours"}, "[17]": {"settings": "RAW264.7 cells co-incubated with Rank-L and the peptide"}, "[18]": {"settings": "peptide injected into epididymal fat, end of experiment"}}, "note": "Not every detail of the peptide structures is certain; ends, links or a residue may be inferred. Where no end group is shown, it is not given here.", "data": [{"sequence": "EDDMMEVPY [peptide, EDDMMEVPY]", "values": [{"measurement": "TRAP+ expression", "setting": "RAW264.7 cells [1]; [17]", "result": "lower"}, {"measurement": "osteoclasts formation", "setting": "RAW264.7 cells [1]; [17]", "result": "significantly lower"}, {"measurement": "formation of giant cells", "setting": "RAW264.7 cells [1]; RAW264.7 cells, quantification after 4 days", "result": "reduced"}, {"measurement": "accumulated distance of the treated cells", "setting": "RAW264.7 cells [2]", "result": "significantly decreased"}, {"measurement": "average speed of the treated cells", "setting": "RAW264.7 cells [2]", "result": "significantly decreased"}, {"measurement": "reduction in adhesion compared to control cells", "setting": "[3]; 30 μM, 30 minutes before seeding, decellularized ECM", "result": 40, "unit": "%"}, {"measurement": "reduction in adhesion at higher concentrations", "setting": "[3]; concentrations higher than 30 μM", "result": "up to 50%"}, {"measurement": "decrease in adhesion compared to the control", "setting": "RAW264.7 cells [4]", "result": 50, "unit": "%"}, {"measurement": "FOXO1 qPCR level, liver", "setting": "[5]", "result": "significantly upregulated"}, {"measurement": "IL1b level (qPCR), epidydimal adipose tissue", "setting": "[5]", "result": "lower levels"}, {"measurement": "MCP1 level (qPCR), epidydimal adipose tissue", "setting": "[5]", "result": "lower levels"}, {"measurement": "PPARα qPCR level, liver", "setting": "[5]", "result": "significantly upregulated"}, {"measurement": "several proinflammatory genes (qPCR), liver", "setting": "[5]", "result": "slight decline"}, {"measurement": "phosphorylation of ERK in visceral adipose tissue", "setting": "ERK phosphorylation [6]", "result": "decreased phosphorylation"}, {"measurement": "NOS2 level (qPCR)", "setting": "[7]", "result": "notable reduction"}, {"measurement": "TNFα level (qPCR)", "setting": "[7]", "result": "notable reduction"}, {"measurement": "pERK levels compared to the control cells", "setting": "ERK phosphorylation [8]; 30 μM peptide, without LPS", "result": "decreased"}, {"measurement": "ERK phosphorylation in the presence of LPS", "setting": "ERK phosphorylation [8]; LPS 100 nM and 30 μM peptide", "result": "lower levels of ERK phosphorylation"}, {"measurement": "body weight lost on average", "setting": "[9]; 72 hours post the initial treatment, three injections into epididymal adipose tissue at 24-hour intervals", "result": 1.5, "unit": "g"}, {"measurement": "liver weights", "setting": "[9]; [18]", "result": "remained unchanged"}, {"measurement": "reduction of epididymal fat", "setting": "[9]; [18]", "result": 20, "unit": "%"}, {"measurement": "intraperitoneal glucose tolerance test, glucose levels", "setting": "[9]; peptide-injected versus control", "result": "lower glucose levels"}, {"measurement": "macrophages in the tissue", "setting": "[10]", "result": "decrease"}, {"measurement": "total immune cells in the tissue", "setting": "[10]", "result": "decrease"}, {"measurement": "nitrites levels", "setting": "RAW264.7 cells [11]", "result": "reductions"}, {"measurement": "ERK phosphorylation compared to the control cells", "setting": "ERK phosphorylation [12]", "result": "lower levels of ERK phosphorylation"}, {"measurement": "IL6 mRNA expression level", "setting": "[13]", "result": "reduced"}, {"measurement": "NOS2 mRNA expression level", "setting": "[13]", "result": "reduced"}, {"measurement": "TNFα mRNA expression level", "setting": "[13]", "result": "reduced"}, {"measurement": "nitrites levels compared to LPS alone", "setting": "[14]", "result": "significantly lower"}, {"measurement": "IL1b mRNA expression level", "setting": "RAW264.7 cells [15]", "result": "reductions"}, {"measurement": "IL6 mRNA expression level", "setting": "RAW264.7 cells [15]", "result": "reductions"}, {"measurement": "IL6 levels (intracellular)", "setting": "[16]", "result": "reduction"}, {"measurement": "intracellular TNFα level in adipose tissue macrophages (CD45+, CD11b, F4/80+)", "setting": "[16]", "result": "significant decrease"}, {"measurement": "intracellular TNFα level in general immune cells (CD45+)", "setting": "[16]", "result": "significant decrease"}]}]}
